Measurements: US8691943B2, “Antimicrobial activity of chicken NK-2 peptide against apicomplexan protozoa” (priority 2011, dated 2014)

System: E. coli strain BMH71-18
Test: Bactericidal activity, broth microdilution assay (OD600)
Type: cell-based
Settings: Escherichia coli, BMH7118; positive control, 18 h
Experimental: Ampicillin (0-20 μg/ml), chicken NK-lysin peptides (0-40 μg/ml), or LB broth alone were added to cultures of the bacteria and incubated for 18 h at […]. Bacterial growth was determined by measuring OD600. X axis: Ampicillin concentrations.
To evaluate the bactericidal activity of NK-lysin peptides, the minimum inhibitory concentration (MIC) values of the purified recombinant protein against E. coil strain BMH71-18 were determined using a standardized broth microdilution assay. Ampicillin MIC values against the bacteria were determined in parallel as positive controls. The assays were performed in accordance with Clinical and Laboratory Standards Institute (CLSI; Formerly National Committee for Clinical Laboratory Standards [NCCLS]) guidelines (NCCLS. 1999. In: Methods for Determining Bacterial Activity of Antimicrobial Agents, NCCLC, Wayne, Pa.; NCCLS. 2002. In: Performance Standards for Antimicrobial Disk and Dilution Susceptibility Tests for Bacteria isolated from Animals; Approved Standard, 2nd ed. NCCLS, Wayne, Pa.). […] The wells were incubated for 18 h at 37° C. with ambient air circulation and without shaking, and the optical density (OD) of each well was measured on a Synergy HT™ multi-modal plate reader (Bio-Tec Instruments, Winooski, Vt.) at 600 nm. Background values, derived from non-inoculated wells containing broth alone, were subtracted from all readings.

`CC1(C)S[C@@H]2[C@H](NC(=O)[C@H](N)c3ccccc3)C(=O)N2[C@H]1C(=O)O` [ampicillin, reference compound] showed an MIC of 5 to 10 µg/mL.
